Some entries share one result that the patent states for a list of compounds.
Tested on: CL141 cells
Test: Side population analysis (Hoechst 33342, flow cytometry)
Assay type: cell-based, human
Method: Single-cell suspensions of cells were detached from dishes with Trypsin-EDTA (Invitrogen) and suspended at 1×10^6 cells/mL in Hank's balanced salt solution (HBSS) supplemented with 3% fetal calf serum and 10 mM Hepes. […] After 90 minutes incubation, the cells were centrifuged immediately for 5 minutes at 300 g and 4° C. and resuspended in ice-cold HBSS. The cells were kept on ice to inhibit efflux of the Hoechst dye, and 1 μg/mL propidium iodide (BD) was added to discriminate dead cells. Finally, these cells were filtered through a 40 μm cell strainer (BD) to obtain single-suspension cells. Cell dual-wavelength analysis and purification were performed on a dual-laser FACS Vantage SE (BD). […] A 610 nm dichroic mirror short-pass (DMSP) was used to separate the emission wavelengths. PI-positive (dead) cells were excluded from the analysis.

## Pherphenazine [Perphenazine]
  reduction of the percentages of side population cells: > 50%

— patent publication US20140294994A1, “PHARMACEUTICAL COMPOSITION FOR ELIMINATION OF CANCER STEM CELLS” (priority 2011, published 2014)
